No constants are given. Whether binding was seen depends on the method and setting. Some results given as binding are weak or reduced against the parent protein; the word gives no strength.
Target: human TIM3 stably expressed on 293T cells (293T-TIM3) (human) (UniProt Q8TDQ0)
Test: flow cytometry on cells; 2 × 10^6 293T-TIM3 or 293T cells, blocked with 1% BSA-PBS, incubated 30 min at room temperature with FITC-conjugated P26 (25 and 50 µg/mL) and/or Gal-9 (10 µg/mL); only the binder purified

By UniProt entry, the sequences of proteins in these tests, tags left out. Residues count along the entry.
UniProt Q8TDQ0, residues 22-301: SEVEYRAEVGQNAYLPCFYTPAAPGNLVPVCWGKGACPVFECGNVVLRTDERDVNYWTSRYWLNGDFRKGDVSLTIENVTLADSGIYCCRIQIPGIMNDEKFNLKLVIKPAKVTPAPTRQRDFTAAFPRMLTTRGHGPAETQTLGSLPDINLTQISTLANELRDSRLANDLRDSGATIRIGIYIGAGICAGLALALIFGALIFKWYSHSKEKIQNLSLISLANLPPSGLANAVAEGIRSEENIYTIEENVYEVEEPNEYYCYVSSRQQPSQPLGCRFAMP

For “FITC-Gal-9 (from UniProt O00182 1-355) (ligand)”, the binding was “binds”.

Reference: paper PMC7603469, “The biologically functional identification of a novel TIM3-binding peptide P26 in vitro and in vivo” (Cancer Chemotherapy and Pharmacology, 2020)
